Source: publication PMC7235792, “Effect of the Most Relevant CYP3A4 and CYP3A5 Polymorphisms on the Pharmacokinetic Parameters of 10 CYP3A Substrates” (Biomedicines, 2020)

Conditions: human, in vivo

association of CYP3A polymorphisms with PK parameters: no significant association
Compound: CC(C)c1c(C(=O)Nc2ccccc2)c(-c2ccccc2)c(-c2ccc(F)cc2)n1CC[C@@H](O)C[C@@H](O)CC(=O)O [atorvastatin]
